PubChem BioAssay AID2685 (National Center for Advancing Translational Sciences (NCATS), 2010)
The list shows a part of the results. Further columns of the screen follow, without active or inactive calls. Compounds called inactive in the main read-out are mostly missing here. The note in brackets gives the kind of curve behind each potency; many fits are weak.

Test: qHTS Assay for Lipid Storage Modulators in Drosophila S3 Cells;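 as to cell number change: cells counted by Cell Tracker Red CMTPX staining in the red channel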
Conditions: BODIPY lipid droplet fluorescence, 18-24 h; for cell number change: measured here: cell count max response, cells fed with added oleic acid
How it was run: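 Drosophila S3 cells got compounds at several concentrations plus oleic acid (400 uM solution). Laser-scanning cytometry with 488 nm excitation read lipid droplets at 500-530 nm and cells at 575-640 nm. Percent activity was relative to 20 uM Triacsin C.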

[1] = measured here: lipid fluorescence (Fed channel) AC50, cells fed with added oleic acid
[2] = measured here: cell number channel AC50, cells fed with added oleic acid

SMILES | cell number change [%] | AC50 [1] | AC50 [2]
O=C(O)C1CSC(c2ccc(O)c([N+](=O)[O-])c2)N1 (configuration not stated) | -17.3 | 29.1 µM [rising, single point] | 
COc1cc(CNc2ccc(C)c(C)c2)cc(OC)c1OC |  | 2.31 µM [falling, full curve] | 
CC1CCN(C(c2cccs2)c2nnnn2Cc2ccccc2)CC1 (configuration not stated) | 94.4 | 1.64 µM [rising, partial curve] | 16.4 µM [rising, partial curve, poor fit]
CCc1cc2c(cc3c(=O)n(CC(=O)NCCCN4CCCCCC4)nc(CC)n32)s1 | -17.3 | 29.1 µM [rising, single point] | 
Clc1ccc(-c2csc(N3CCSCC3)n2)cc1 | -31.6 |  | 0.291 µM [falling, full curve, poor fit]
O=C(CSC(=S)N1CCCC1)NCC(=O)Nc1ccc(F)c(F)c1 | 9.73 |  | 
COc1ccc(OCC(=O)N/N=C/C(C)=C/c2ccco2)c(Br)c1 | 147 |  | 
CCCOC(=O)c1ccc(Nc2cc(C)nc3ncnn23)cc1 | 19.7 | 6.51 µM [rising, single point] | 
CCCCCCCOc1ccc(-c2ccc(C#N)cn2)cc1 | 20.2 | 29.1 µM [rising, single point] | 
Cc1ccc(C(=O)COC(=O)CN2C(=O)C3C4C=CC(C4)C3C2=O)cc1[N+](=O)[O-] (configuration not stated) | 13 | 7.31 µM [rising, partial curve] | 
COc1cccc(C(=O)Nc2cc3c(cc2Cl)OCCCO3)c1 | 1.73 |  | 
Cc1noc(C)c1S(=O)(=O)Nc1ccc(O)c2c(=O)cc(-c3ccccc3Cl)oc12 | -11.8 | 0.651 µM [falling, partial curve, poor fit] | 
COc1ccc(C(=O)N2CCN(S(=O)(=O)c3ccc(F)cc3)CC2)cc1OC | -1.31 |  | 0.146 µM [rising, single point]
CC(=O)NCCC(=O)Nc1nc(C)c(Cc2ccc3c(c2)OCO3)s1 | 7.66 | 1.84 µM [rising, full curve] | 
COc1ccc(/C=C/C(=O)NC(=S)NNC(=O)c2cc(OC)c(OC)c(OC)c2)cc1 | 2.92 | 3.66 µM [falling, full curve] | 1.84 µM [falling, partial curve]
O=c1cc(O)c2ccccc2n1Cc1ccccc1Cl | 16.8 | 1.3 µM [rising, partial curve] | 
Cc1ccc(NC(=O)c2ccc3c(=O)n4c(nc3c2)CCCCC4)cc1F | -7.62 |  | 
O=S(=O)(NCCOc1ccccc1)c1ccc2ccccc2c1 | 15.1 | 0.517 µM [falling, full curve, poor fit] | 
CCC1(c2ccccc2)NC(=O)N(CC(=O)Nc2ccc(S(=O)(=O)N3CC(C)CC(C)C3)cc2)C1=O (configuration not stated) | 1.42 |  | 0.651 µM [falling, full curve, poor fit]
Cc1onc(-c2ccccc2Cl)c1C(=O)NNC(=O)c1ccccc1F | 1.9 |  | 
Cc1ccc(N=Cc2c(O)n(-c3ccc4c(c3)OCO4)c(=O)c3ccccc23)cc1 |  | 6.51 µM [rising, partial curve] | 
O=C(NC(=S)Nc1ccc(S(=O)(=O)N2CCCCC2)cc1)c1cccs1 | 4.82 | 2.06 µM [rising, partial curve, poor fit] | 

Fetched by compound from the list above (three):
SMILES | cell number change [%] | AC50 [1] | AC50 [2]
Clc1ccc(-c2csc(N3CCSCC3)n2)cc1 | -31.6 |  | 0.291 µM [falling, full curve, poor fit]
Cc1ccc(C(=O)COC(=O)CN2C(=O)C3C4C=CC(C4)C3C2=O)cc1[N+](=O)[O-] (configuration not stated) | 13 | 7.31 µM [rising, partial curve] | 
CCCOC(=O)c1ccc(Nc2cc(C)nc3ncnn23)cc1 | 19.7 | 6.51 µM [rising, single point] | 

Next part:

SMILES | cell number change [%] | AC50 [1] | AC50 [2]
COc1ccc(S(=O)(=O)N2CCN(C(=O)C3CC3)CC2)cc1Br | 5.51 | 4.11 µM [falling, single point] | 
COc1ccc(CCn2c(O)c(C=Nc3cccc(F)c3)c(=O)[nH]c2=O)cc1OC | -0.427 |  | 
O=C(CN1CCCC1c1cccs1)Nc1cccc(S(=O)(=O)N2CCCC2)c1 (configuration not stated) | -0.278 | 9.2 µM [falling, partial curve] | 
CC(=O)c1cccc(NC(=O)CN(C)Cc2ccc(OC(F)F)cc2)c1 | -17.9 | 29.1 µM [falling, single point] | 
O=C(Cc1cccs1)NC1(C(=O)NC2CCCC2)CCCCC1 | -4.03 | 29.1 µM [falling, single point] | 
CC1(C)Cc2c(c(=S)nc(-c3ccccc3)n2CCO)CO1 |  | 0.411 µM [falling, full curve] | 
CC(=O)Nc1cccc(NC(=O)COc2ccc3c(c2)CCC3)c1 | -11.7 | 3.26 µM [falling, full curve, poor fit] | 
O=C(CN1CCN(CC(=O)Nc2ccc(F)cc2)CC1)NCC1(N2CCOCC2)CCCCC1 | -31.4 | 0.411 µM [rising, single point] | 
CC(=O)Nc1ccc(NC(=O)CCCNC(=O)c2ccc(Cl)cc2)cc1 | 7.89 |  | 
Cc1cc(C)n(CC(O)COc2ccccc2Br)n1 (configuration not stated) | -6.04 | 23.1 µM [rising, single point] | 
Cc1ccc(N(CC(=O)NCc2ccc(F)cc2)C(=O)CCC(=O)Nc2ccccn2)cc1C | 5.22 | 14.6 µM [rising, partial curve] | 
COc1ccc(CCNC(=O)c2ccc(Cl)cc2Cl)cc1 | 4.16 | 20.6 µM [rising, single point] | 
O=C(CCl)N=c1sccn1Cc1cccc2ccccc12 | -9.76 |  | 
COc1ccccc1CNC(=O)c1cc(-c2ccccc2C)nn1CC1CC(c2cccnc2)=NO1 (configuration not stated) | 12.2 |  | 0.731 µM [falling, single point]
CN(c1cccc(NC(=O)c2ccc(Cl)c(S(=O)(=O)N3CCOCC3)c2)c1)S(C)(=O)=O | -14.7 |  | 
CN1C(C(=O)NCCc2cccs2)CC2Cn3c(nc4ccccc43)C21 (configuration not stated) |  | 6.51 µM [rising, partial curve, poor fit] | 
CCN(CC)c1ccc(C=C2C(=O)OC3(CCCCC3)OC2=O)cc1 | 1.71 |  | 4.11 µM [rising, partial curve]
COc1cccc(C2=CC(c3ccccc3)n3ncnc3N2)c1 (configuration not stated) | -26.6 | 10.3 µM [falling, partial curve, poor fit] | 
COc1ccc(N2C(=O)NC3CC2(C)Oc2ccccc23)cc1OC (configuration not stated) | 7.18 | 29.1 µM [rising, single point] | 
CCCCNC(=O)C12CCC(C)(C(=O)C1Br)C2(C)C (configuration not stated) | -4.88 | 29.1 µM [falling, single point] | 
Cc1ccc(C2CC(c3cccs3)=NN2C(=O)c2ccco2)o1 (configuration not stated) | 6.28 |  | 0.184 µM [rising, full curve, poor fit]
NCc1oc(-c2ccccc2)cc1C(=O)O | 1.92 | 6.51 µM [rising, single point] | 

SMILES | cell number change [%] | AC50 [1] | AC50 [2]
CC1CCCCC1NC(=O)/C=C/c1nc2ccccc2s1 (configuration not stated) |  | 29.1 µM [falling, single point] | 
COc1ccccc1CNC(=O)CSC(=S)N1CCCC1 | -8.11 | 0.206 µM [falling, full curve] | 
O=C(c1ccco1)N(CCC(c1ccccc1)c1ccco1)Cc1ccccc1 (configuration not stated) | -7.4 | 0.231 µM [falling, full curve, poor fit] | 
COc1ccc(CCNC(=O)c2cc(-c3ccc(C)cc3O)n[nH]2)cc1OC | 13.2 | 2.91 µM [rising, partial curve] | 
COc1ccccc1-n1c(-c2ccccc2)n[nH]c1=S | -13.3 | 1.84 µM [falling, partial curve, poor fit] | 
CCn1ncc(CN2CCC(C(=O)Nc3cccc(-c4cccc(F)c4)c3)CC2)c1C | 19.8 | 6.51 µM [rising, single point] | 
CCCN1CCC(NC(=O)C2CCCCC2C(=O)O)CC1 (configuration not stated) | 18.8 | 29.1 µM [rising, single point] | 
FC(F)(Cl)c1nnc2ccc(Sc3ccccn3)nn12 | -17.3 | 5.8 µM [falling, full curve, poor fit] | 0.058 µM [falling, partial curve, poor fit]
CC1(C)CC(N(Cc2ccc(F)cc2)C(=O)c2ccc(F)cc2)CCO1 (configuration not stated) | 15.6 | 4.61 µM [rising, single point] | 7.31 µM [rising, single point]
CCOC(=O)C1CCCN(C(=O)c2ccc(OC(C)=O)cc2)C1 (configuration not stated) | 10.4 | 0.13 µM [rising, full curve, poor fit] | 
CCN(CC)c1cccc(OC2=NS(=O)(=O)c3ccccc32)c1 | -48.2 | 29.1 µM [falling, single point] | 29.1 µM [falling, single point]
O=c1c(F)cn(C2CCCO2)c(=O)n1Cc1ccccc1Cl (configuration not stated) | -2.21 |  | 
O=C(c1ccc2nc[nH]c2c1)N1CCN(c2cccc(Cl)c2)CC1 | -3.24 |  | 
O=C(c1ccncc1)N1CCN(S(=O)(=O)c2ccc(F)cc2)CC1 | 19.7 | 29.1 µM [rising, single point] | 
CCSc1nnc(NC(=O)c2cccc(OCc3c(C)noc3C)c2)s1 | -17.6 |  | 
Cc1ccc(NC(=O)N2CCc3ccccc32)cc1C | 13.4 |  | 0.092 µM [falling, full curve, poor fit]
COc1ccc(C2CC(c3ccccc3)=NN2C(=O)COC(=O)c2nc3nc(C)cc(C)n3n2)cc1 (configuration not stated) |  | 4.61 µM [rising, single point] | 5.17 µM [rising, partial curve]
CCN(Cc1ccccc1)C(=O)C1CCN(Cc2sccc2C)CC1 | 17.6 | 8.2 µM [rising, partial curve] | 
CCCCCc1n[nH]c2c1CCCC2 | -16.8 |  | 
COc1ccc(NC(=O)CC2C(=O)N(c3cccc(OC)c3)C(=O)N2C(C)C)cc1 (configuration not stated) | 0.934 |  | 
COC(=O)/C=C/CC(C)OS(N)(=O)=O (configuration not stated) | 20.1 |  | 
Cc1ccc(S(=O)(=O)Nc2ccc3c(c2)nc(CCN2CCCC2)n3C)cc1 |  | 1.46 µM [rising, partial curve, poor fit] | 6.51 µM [rising, single point]
